Reference: patent US20230040568A1
These are yes or no findings as the source states them, for the method shown. Some entries that bind do so weakly or less than the wild type. Sequences can lack the tags named with a protein.

Target: T1, TMIGD2 expressed on 3T3 cells (UniProt Q96BF3)
T1 sequence (looked up): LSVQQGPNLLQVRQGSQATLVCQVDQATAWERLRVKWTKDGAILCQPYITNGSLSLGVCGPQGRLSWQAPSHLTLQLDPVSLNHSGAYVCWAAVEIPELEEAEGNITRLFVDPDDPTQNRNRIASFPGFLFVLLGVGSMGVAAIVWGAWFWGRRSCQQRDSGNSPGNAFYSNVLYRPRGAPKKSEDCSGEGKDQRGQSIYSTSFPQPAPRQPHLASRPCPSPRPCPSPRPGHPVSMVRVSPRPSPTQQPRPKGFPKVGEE
Assay: FACS, staining of 3T3 cells expressing TMIGD2 (FIG. 8)

B1: HHLA2-IgV1-hIgG fusion polypeptide (Fc fusion, UniProt Q9UM44 23-137, looked up, not shown: a dimerising Fc or GST)
chain: IFPLAFFIYVPMNEQIVIGRLDEDIILPSSFERGSEVVIHWKYQDSYKVHSYYKGSDHLESQDPRYANRTSLFYNEIQNGNASLFFRRVSLLDEGIYTCYVGTAIQVITNKVVLK
- binding: binds
